The experiment has as its target GIRK2A wild type. As to the kind of experiment: co-IP; HEK293T cells co-transfected with HA-GIRK1 and GIRK2A WT or Y353X (doubled plasmid for Y353X); IP with rabbit anti-GIRK2 N-terminal antibodies; blot with anti-HA; band ratio HA-GIRK1/GIRK2A normalised to GIRK2A WT.

These are yes or no findings as the source states them, for the method shown. Binding seen in cells or lysates may run through a third protein. Binding calls can cover weak binding; strength is not graded here. Sequences can lack the tags named with a protein.

B1: GIRK1 with extracellular HA tag (HA-GIRK1) (protein, UniProt P63251 1-501)
chain: MSALRRKFGDDYQVVTTSSSGSGLQPQGPGQGPQQQLVPKKKRQRFVDKNGRCNVQHGNLGSETSRYLSDLFTTLVDLKWRWNLFIFILTYTVAWLFMASMWWVIAYTRGDLNKAHVGNYTPCVANVYNFPSAFLFFIETEATIGYGYRYITDKCPEGIILFLFQSILGSIVDAFLIGCMFIKMSQPKKRAETLMFSEHAVISMRDGKLTLMFRVGNLRNSHMVSAQIRCKLLKSRQTPEGEFLPLDQLELDVGFSTGADQLFLVSPLTICHVIDAKSPFYDLSQRSMQTEQFEVVVILEGIVETTGMTCQARTSYTEDEVLWGHRFFPVISLEEGFFKVDYSQFHATFEVPTPPYSVKEQEEMLLMSSPLIAPAITNSKERHNSVECLDGLDDISTKLPSKLQKITGREDFPKKLLRMSSTTSEKAYSLGDLPMKLQRISSVPGNSEEKLVSKTTKMLSDPMSQSVADLPPKLQKMAGGPTRMEGNLPAKLRKMNSDRFT
For B1, the binding result is recorded as “binds”.

The values are drawn from article PMC5615076.
